Data as given in PubChem BioAssay AID743448 (Peter MacCallum Cancer Centre, 2014).
Screen: 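Third-round triage of 106 confirmed candidates in four colon lines under two drugs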 (follow-up of hits). Cell system: four human colon cancer cell lines: HCT116-VR (vorinostat-resistant HCT116 derivative), SW480, SW620 and LIM1215. Knock-down reagent: siRNA pool against human genes, 40 nM siRNA pool. Timing: drug added two days after transfection, read one day later. Challenge: vorinostat 2.5 µM on one half of each plate, etoposide 5 µM on the other half. Cell line and drug panel: vorinostat-resistant HCT116 cells with vorinostat. Measured: 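Caspase luminescence and viability fluorescence, each expressed relative to mock transfection and also as robust z-scores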. Direction: caspase ratio to mock: higher = more caspase activity than mock; viability ratio to mock: higher = more live cells than mock; caspase robust z-score: higher = more caspase activity, more apoptosis; viability robust z-score: higher = more live cells. Active means: 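a row is a hit if caspase relative to mock is 1.6 or above or viability relative to mock is 0.75 or below; wells dying heavily without drug are not called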. Meaning of the calls: active = caspase or viability hit in this panel; inactive = no change, or unhealthy well.
This is a random part of the 106 reagents, in one setting of the screen. 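Calls are per line and drug panel including etoposide, not vorinostat-specific; gene picks needed hits in two or more extra lines with vorinostat versus etoposide.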

Target gene	caspase ratio to mock	viability ratio to mock	caspase robust z-score	viability robust z-score	activity call
LCE2A (late cornified envelope 2A)	2.77	1.12	0.7	1.25	active
NUP62 (nucleoporin 62)	2.58	0.73	0.52	-1.14	active
CCDC59 (coiled-coil domain containing 59)	1.66	0.79	-0.54	-0.78	active
IQSEC1 (IQ motif and Sec7 domain ArfGEF 1)	1.88	0.91	-0.32	-0.01	active
SERTAD1 (SERTA domain containing 1)	2.44	0.88	0.38	-0.24	active
SLU7 (spliceosome associated SLU7)	1.49	0.62	-0.78	-1.82	active
GPER1 (G protein-coupled estrogen receptor 1)	2.37	0.92	0.3	0.03	active
CBX7 (chromobox 7)	2.15	1	0.06	0.52	active
C1orf210 (chromosome 1 open reading frame 210)	2.93	0.85	0.96	-0.45	active
MRPL19 (mitochondrial ribosomal protein L19)	1.59	1.03	-0.62	0.66	inactive
VPS4A (vacuolar protein sorting 4 homolog A)	2.31	0.81	0.16	-0.68	active
MTF2 (metal response element binding transcription factor 2)	2.48	0.68	0.49	-1.46	active
MSANTD1 (Myb/SANT DNA binding domain containing 1)	2.88	0.78	0.9	-0.88	active
GNG8 (G protein subunit gamma 8)	2	0.67	-0.22	-1.54	active
SH3GLB2 (SH3 domain containing GRB2 like, endophilin B2)	1.17	0.94	-1.21	0.16	inactive
BDP1 (BDP1 general transcription factor IIIB subunit)	1.02	0.73	-1.35	-1.18	active
PNN (pinin, desmosome associated protein)	3.08	0.84	1.09	-0.46	active

2 entries from above, arranged by “viability ratio to mock”, lowest first:
Target gene	caspase ratio to mock	viability ratio to mock	caspase robust z-score	viability robust z-score	activity call
NUP62 (nucleoporin 62)	2.58	0.73	0.52	-1.14	active
LCE2A (late cornified envelope 2A)	2.77	1.12	0.7	1.25	active
